Measured values taken from patent publication US20120034613A1, “Apparatus and Method for Testing Relationships Between Gene Expression and Physical Appearance of Skin” (NSE Products, Inc., priority 2010, published 2012).
The source gives many values for each of these; only a part stands here.

System: EpidermFT™ Skin Model (EFT-400) full thickness skin cultures
Assay: Affymetrix GeneChip HG U133 Plus 2.0 microarray global gene expression, agent-exposed vs untreated skin cultures
Assay type: cell-based, human
Details: Salicin 0.5%, 24 hr
[1] = 218280_x_at HIST2H2AA3 /// HIST2H2AA4

OCc1ccccc1O[C@@H]1O[C@H](CO)[C@@H](O)[C@H](O)[C@H]1O [Salicin, 2-(Hydroxymethyl)phenyl β-D-glucospyranoside]
Fold change (208510_s_at PPARG): 2.182
Direction (209204_at LMO4): up
Fold change (209204_at LMO4): 2.247
Direction (209277_at TFPI2): up
Fold change (209277_at TFPI2): 2.243
Direction (209324_s_at RGS16): up
Fold change (209324_s_at RGS16): 2.064
Direction (209545_s_at RIPK2): up
Fold change (209545_s_at RIPK2): 2.253
Direction (209699_x_at AKR1C2): up
Fold change (209699_x_at AKR1C2): 2.064
Direction (209708_at MOXD1): up
Fold change (209708_at MOXD1): 2.205
Direction (209781_s_at KHDRBS3): up
Fold change (209781_s_at KHDRBS3): 2.199
Direction (209850_s_at CDC42EP2): up
Fold change (209850_s_at CDC42EP2): 2.161
Direction (210191_s_at PHTF1): up
Fold change (210191_s_at PHTF1): 2.2
Direction (210198_s_at PLP1): up
Fold change (210198_s_at PLP1): 2.052
Direction (210243_s_at B4GALT3): up
Fold change (210243_s_at B4GALT3): 2.049
Direction (210257_x_at CUL4B): up
Fold change (210257_x_at CUL4B): 2.231
Direction (210275_s_at ZFAND5): up
Fold change (210275_s_at ZFAND5): 2.201
Direction (210350_x_at ING1): up
Fold change (210350_x_at ING1): 2.174
Direction (210510_s_at NRP1): up
Fold change (210510_s_at NRP1): 2.238
Direction (210845_s_at PLAUR): up
Fold change (210845_s_at PLAUR): 2.249
Direction (210875_s_at ZEB1): up
Fold change (210875_s_at ZEB1): 2.233
Direction (210896_s_at ASPH): up
Fold change (210896_s_at ASPH): 2.225
Direction (211952_at IPO5): up
Fold change (211952_at IPO5): 2.044
Direction (212110_at SLC39A14): up
Fold change (212110_at SLC39A14): 2.046
Direction (212120_at RHOQ): up
Fold change (212120_at RHOQ): 2.061
Direction (212454_x_at HNRPDL): up
Fold change (212454_x_at HNRPDL): 2.054
Direction (212585_at OSBPL8): up
Fold change (212585_at OSBPL8): 2.25
Direction (212915_at PDZRN3): up
Fold change (212915_at PDZRN3): 2.236
Direction (213029_at NFIB): up
Fold change (213029_at NFIB): 2.235
Direction (213036_x_at ATP2A3): up
Fold change (213036_x_at ATP2A3): 2.192
Direction (213113_s_at SLC43A3): up
Fold change (213113_s_at SLC43A3): 2.211
Direction (213159_at PCNX): up
Fold change (213159_at PCNX): 2.265
Direction (213173_at PCNX): up
Fold change (213173_at PCNX): 2.071
Direction (213309_at PLCL2): up
Fold change (213309_at PLCL2): 2.241
Direction (213338_at TMEM158): up
Fold change (213338_at TMEM158): 2.205
Direction (213417_at TBX2): up
Fold change (213417_at TBX2): 2.229
Direction (213425_at WNT5A): up
Fold change (213425_at WNT5A): 2.279
Direction (213836_s_at WIPI1): up
Fold change (213836_s_at WIPI1): 2.256
Direction (213988_s_at SAT1): up
Fold change (213988_s_at SAT1): 2.174
Direction (214061_at WDR67): up
Fold change (214061_at WDR67): 2.176
Direction (214657_s_at NCRNA00084): up
Fold change (214657_s_at NCRNA00084): 2.174
Direction (215058_at DENND5B): up
Fold change (215058_at DENND5B): 2.169
Direction (216218_s_at PLCL2): up
Fold change (216218_s_at PLCL2): 2.201
Direction (217741_s_at ZFAND5): up
Fold change (217741_s_at ZFAND5): 2.16
Direction (218193_s_at GOLT1B): up
Fold change (218193_s_at GOLT1B): 2.18
Direction [1]: up
Fold change [1]: 2.275
Direction (218401_s_at ZNF281): up
Fold change (218401_s_at ZNF281): 2.218
Direction (218513_at C4orf43): up
Fold change (218513_at C4orf43): 2.047
Direction (218541_s_at C8orf4): up
